In patent US20180037611A1 one finds binding data, which are given here for 1 molecule.

Results are given in words; binding and its absence hold for the method and conditions named.

This assay has as its target recombinant soluble DENV envelope protein (standard ELISA) (dengue virus (serotype not given)). Put plainly: standard ELISA on recombinant sE. For orientation: In an ELISA, binding on a coated surface is turned into a signal by an enzyme label.

B1: 747(4)A11 (antibody, V domains shown)
VH: EVQLVESGGGLVRPGGSLRLSCAASGFSYSNHWMHWVRQAPGKGLVWVSRINSDGSTRNYADFVKGRFTISRDNAENTLYLEMNSLTADDTAVYYCVRDGVRFYYDSTGYYPDSFFKYGMDVWGQGTTVTV
VL: QSVLTQPASVSGSPGQSITISCTGTSSNADTYNLVSWYQQRPGKAPKLMIYEGTKRPSGVSNRFSASKSATAASLTISGLQPEDEADYYCCSYATSRTLVFGGGTKLTVV
As to B1, the binding result is recorded as “no binding”.
